Measurements published in the supplement of paper PMC10331698.
± gives the standard deviation of the averaged measurements. Most values lie at the level of the controls, where differences are scatter.

Legend:
Assay in all cases: level (log10 ratio to DMSO vehicle control); higher = higher biomarker level / cell amount than vehicle control
[1] = compound: O=C(O)C(F)(F)C(F)(F)C(F)(F)C(F)(F)C(F)(F)C(F)(F)C(F)(F)C(F)(F)C(F)(F)C(F)F [11-H-Perfluoroundecanoic acid]; details: 2200 nM; in DMSO
Method: (§1)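 BioMAP Diversity Plus panel of 12 human primary cell co-culture systems (3C, 4H, LPS, SAg, BT, BF4T, BE3C, CASM3C, HDF3CGF, KF3CT, MyoF, Mphg). Compounds were added 1 h before stimulation and left for 24 h (MyoF 48 h; BT 72 h for soluble read-outs or 6 d for IgG). Biomarkers were read by ELISA, cytotoxicity by SRB, PBMC viability and proliferation by Alamar Blue. Each well value was divided by the mean of 8 DMSO control wells on the same plate and log10 transformed; duplicate blinded samples were tested at 4 concentrations.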

Perfluoropentanoic acid = compound: O=C(O)C(F)(F)C(F)(F)C(F)(F)C(F)(F)F [Perfluoropentanoic acid]; details: in DMSO
Method: as §1

Octafluoroadipic acid = compound: O=C(O)C(F)(F)C(F)(F)C(F)(F)C(F)(F)C(=O)O [Octafluoroadipic acid]; details: 2200 nM; in DMSO
Method: as §1

[2] = compound: O=S(=O)(O)CCC(F)(F)C(F)(F)C(F)(F)C(F)(F)C(F)(F)C(F)(F)C(F)(F)C(F)(F)F [8:2 Fluorotelomer sulfonic acid]; details: in DMSO
Method: as §1

[3] = compound: FC(F)(F)C(F)(F)C(F)(F)C(F)(F)C(F)(F)C(F)(F)CC1CO1 [3-(Perfluorohexyl)-1,2-epoxypropane]; details: 2200 nM; in DMSO
Method: as §1

[4] = compound: Cc1ccc(S(=O)(=O)OCC(F)(F)C(F)(F)C(F)(F)C(F)(F)C(F)(F)C(F)F)cc1 [1H,1H,7H-Perfluoroheptyl 4-methylbenzenesulfonate]; details: 2200 nM; in DMSO
Method: as §1

Perfluoroheptanoic acid = compound: O=C(O)C(F)(F)C(F)(F)C(F)(F)C(F)(F)C(F)(F)C(F)(F)F [Perfluoroheptanoic acid]; details: in DMSO
Method: as §1

[5] = compound: CCN(CCO)S(=O)(=O)C(F)(F)C(F)(F)C(F)(F)C(F)(F)C(F)(F)C(F)(F)C(F)(F)C(F)(F)F [N-Ethyl-N-(2-hydroxyethyl)perfluorooctanesulfonamide]; details: in DMSO
Method: as §1

[6] = compound: O=C(O)C(F)(F)C(F)(F)C(F)(F)OC(F)(F)F [Perfluoro(4-methoxybutanoic) acid]; details: 2200 nM; in DMSO
Method: as §1

1H,1H-Heptafluorobutanol = compound: OCC(F)(F)C(F)(F)C(F)(F)F [1H,1H-Heptafluorobutanol]; details: 2200 nM; in DMSO
Method: as §1

Heptafluorobutyramide = compound: NC(=O)C(F)(F)C(F)(F)C(F)(F)F [Heptafluorobutyramide]; details: 2200 nM; in DMSO
Method: as §1

[7] = compound: NCC(F)(F)C(F)(F)C(F)(F)C(F)(F)C(F)(F)C(F)(F)C(F)(F)F [1H,1H-Perfluorooctylamine]; details: 2200 nM; in DMSO
Method: as §1

[8] = compound: CN(C(=O)C(F)(F)C(F)(F)C(F)(F)F)[Si](C)(C)C [N-Methyl-N-trimethylsilylheptafluorobutyramide]; details: 2200 nM; in DMSO
Method: as §1

[9] = compound: CC(C)(C)C(=O)CC(=O)C(F)(F)C(F)(F)C(F)(F)F [(Heptafluorobutanoyl)pivaloylmethane]; details: 2200 nM; in DMSO
Method: as §1

[10] = compound: OCCC(F)(F)C(F)(F)C(F)(F)C(F)(F)C(F)(F)C(F)(F)F [6:2 Fluorotelomer alcohol]; details: 2200 nM; in DMSO
Method: as §1

1-(Perfluorohexyl)octane = compound: CCCCCCCCC(F)(F)C(F)(F)C(F)(F)C(F)(F)C(F)(F)C(F)(F)F [1-(Perfluorohexyl)octane]; details: in DMSO
Method: as §1

Test System | level (log10) [1] | level (log10) (Perfluoropentanoic acid; 2200 nM) | level (log10) (Perfluoropentanoic acid; 6700 nM) | level (log10) (Perfluoropentanoic acid; 20000 nM) | level (log10) (Perfluoropentanoic acid; 60000 nM) | level (log10) (Octafluoroadipic acid) | level (log10) ([2]; 2200 nM) | level (log10) ([2]; 6700 nM) | level (log10) ([2]; 20000 nM) | level (log10) ([2]; 60000 nM) | level (log10) [3] | level (log10) [4] | level (log10) (Perfluoroheptanoic acid; 2200 nM) | level (log10) (Perfluoroheptanoic acid; 6700 nM) | level (log10) (Perfluoroheptanoic acid; 20000 nM) | level (log10) (Perfluoroheptanoic acid; 60000 nM) | level (log10) ([5]; 2200 nM) | level (log10) ([5]; 6700 nM) | level (log10) ([5]; 20000 nM) | level (log10) [6] | level (log10) (1H,1H-Heptafluorobutanol) | level (log10) (Heptafluorobutyramide) | level (log10) [7] | level (log10) [8] | level (log10) [9] | level (log10) [10] | level (log10) (1-(Perfluorohexyl)octane; 740 nM) | level (log10) (1-(Perfluorohexyl)octane; 2200 nM)
MyoF:Collagen III | -0.0215 ± 0.019 | -0.009 ± 0.016 | -0.001 ± 0.0028 | 0.0055 ± 0.0021 | -0.001 ± 0.0085 | 0.0025 ± 0.015 | -0.0145 ± 0.035 | -0.008 ± 0.017 | -0.04 ± 0.031 | -0.0355 ± 0.023 | 0.0065 ± 0.018 | -0.0075 ± 0.012 | -0.003 ± 0.023 | -0.013 ± 0.018 | -0.011 ± 0.018 | -0.0055 ± 0.0078 | -0.005 ± 0.027 | -0.0045 ± 0.022 | -0.228 ± 0.17 | -0.0055 ± 0.005 | 0.004 ± 0.0028 | -0.0065 ± 0.026 | -0.002 ± 0.0028 | -0.0065 ± 0.011 | -0.009 ± 0.0071 | -0.004 ± 0.018 | -0.0025 ± 0.026 | 0.0065 ± 0.0035
CASM3C:IL-6 | 0.0075 ± 0.025 | 0.01 ± 0.072 | -0.02 ± 0.028 | -0.028 ± 0.027 | 0.014 ± 0.047 | -0.0005 ± 0.037 | 0.016 ± 0.024 | 0.0025 ± 0.029 | -0.0075 ± 0.0064 | -0.0005 ± 0.018 | 0.024 ± 0.058 | 0.012 ± 0.059 | 0.0695 ± 0.081 | -0.0135 ± 0.0078 | -0.0205 ± 0.021 | 0.008 ± 0.085 | 0.0245 ± 0.023 | -0.0025 ± 0.0035 | -0.0255 ± 0.044 | -0.0005 ± 0.054 | 0.035 ± 0.0085 | 0.0125 ± 0.081 | 0.04 ± 0.018 | 0.0105 ± 0.03 | 0.0065 ± 0.032 | 0.0385 ± 0.087 | 0.016 ± 0.058 | -0.0095 ± 0.021
CASM3C:SRB | 0.0075 ± 0.005 | 0.012 ± 0.018 | 0.0095 ± 0.0021 | -0.008 ± 0.0014 | 0.004 ± 0.0099 | -0.0045 ± 0.00071 | 0.0055 ± 0.015 | 0.0075 ± 0.005 | 0.0055 ± 0.005 | 0.0105 ± 0.0035 | 0.003 ± 0.0071 | 0.004 ± 0.0028 | 0.0035 ± 0.0035 | -0.008 ± 0.0099 | -0.011 ± 0.0014 | -0.0065 ± 0.012 | -0.01 ± 0.0042 | -0.0265 ± 0.0078 | -0.097 ± 0.014 | -0.0095 ± 0.00071 | 0.007 ± 0.0028 | -0.015 ± 0.023 | -0.0005 ± 0.00071 | -0.001 ± 0.011 | 0.004 ± 0.0014 | 0.0115 ± 0.028 | 0.005 ± 0.017 | 0 ± 0.0099
HDF3CGF:MMP-1 | -0.0025 ± 0.056 | -0.007 ± 0.02 | -0.0165 ± 0.013 | -0.0215 ± 0.0021 | -0.0215 ± 0.011 | -0.011 ± 0.017 | 0.002 ± 0.018 | 0.0205 ± 0.012 | -0.017 ± 0.028 | -0.0835 ± 0.036 | 0.0005 ± 0.005 | -0.0085 ± 0.032 | 0.0025 ± 0.00071 | -0.0105 ± 0.012 | 0.0025 ± 0.00071 | 0.0065 ± 0.005 | 0.0455 ± 0.016 | 0.043 ± 0.013 | 0.0065 ± 0.026 | -0.005 ± 0.0014 | -0.0255 ± 0.0035 | -0.0135 ± 0.0078 | 0 ± 0.0085 | -0.01 ± 0.0057 | -0.015 ± 0.024 | 0.0005 ± 0.011 | 0.003 ± 0.027 | -0.02 ± 0.0071
